Assay results reported in PubChem BioAssay AID248 (DTP/NCI, 2004).
The list does not hold the whole screen: it gathers tests that were run many times, whatever their T/C, doses with no T/C, and many T/C values between a quarter and a half above the control. Other doses and runs of a compound stand elsewhere. T/C is the treated group as % of the vehicle group. Some entries give survivors of the animals treated and no T/C: the source holds a T/C of zero for them, seemingly a mark for toxic or unscored doses. Some doses without a T/C left all or most animals alive at the check, yet need not have been tolerated: the source hardly ever lists a survival T/C far under the control, and the zero likely stands for such cases as well. Survivors were counted at the toxicity check, usually on the fifth day, unless a day is given; later deaths do not show. Schedule codes are those of the source, taken here to give the interval after Q, in days (D) or hours (H), and the number of doses after X. Some entries hold several experiments; the results are listed from low to high. Some structures stand for samples that the source files as different forms (salt, stereo form or complex); doses refer to the form tested.

Tested on: L1210 leukemia ip in BDF1 mice, survival T/C
Assay: NCI In Vivo Anticancer Drug Screen. Data for tumor model L1210 Leukemia (intraperitoneal) in B6D2F1 (BDF1) mice
Conditions: T/C endpoint: mean survival time, higher T/C = longer survival
[1] = dose: 400.0 mg/kg/injection, schedule: Q04DX003 (ip), vehicle: saline with Tween-80
[2] = dose: 100.0 mg/kg/injection, schedule: Q04DX003 (ip), vehicle: Klucel (hydroxypropylcellulose) (HPC)
[3] = dose: 200.0 mg/kg/injection, schedule: Q04DX003 (ip), vehicle: Klucel (hydroxypropylcellulose) (HPC)
[4] = dose: 400.0 mg/kg/injection, schedule: Q04DX003 (ip), vehicle: Klucel (hydroxypropylcellulose) (HPC)
[5] = dose: 200.0 mg/kg/injection, schedule: Q01DX009 (ip), vehicle: saline
[6] = dose: 400.0 mg/kg/injection, schedule: Q04DX003 (ip), vehicle: saline
[7] = dose: 400.0 mg/kg/injection, schedule: Q01DX001 (ip), vehicle: saline
[8] = dose: 100.0 mg/kg/injection, schedule: Q01DX009 (ip), vehicle: Klucel (hydroxypropylcellulose) (HPC)
[9] = dose: 400.0 mg/kg/injection, schedule: Q01DX009 (ip), vehicle: Klucel (hydroxypropylcellulose) (HPC)
[10] = dose: 400.0 mg/kg/injection, schedule: Q01DX001 (ip), vehicle: Klucel (hydroxypropylcellulose) (HPC)
[11] = dose: 50.0 mg/kg/injection, schedule: Q04DX003 (ip), vehicle: Klucel (hydroxypropylcellulose) (HPC)
[12] = dose: 200.0 mg/kg/injection, schedule: Q01DX001 (ip), vehicle: Klucel (hydroxypropylcellulose) (HPC)

Structure (SMILES): CC[C@@H]1O[C@@H]([C@@H]2CC[C@](O)([C@]3(C)CC[C@@H]([C@@H](C)[C@@]4(O)CC[C@H](C)[C@@H](C[C@@]5(O)O[C@@H]([C@@H](C)[C@H](O)C[C@H]6CC[C@H](C)[C@@H]([C@@H](C)C(=O)O)O6)CC[C@@H]5C)O4)O3)O2)CC[C@@]1(C)O
- survivor count (dose: 0.78 mg/kg/injection, schedule: Q04DX002 (ip), vehicle: saline): 2 of 3
- survivor count (dose: 1.56 mg/kg/injection, schedule: Q04DX002 (ip), vehicle: saline): 0 of 3
- survivor count (dose: 3.12 mg/kg/injection, schedule: Q04DX002 (ip), vehicle: saline): 0 of 3
- survivor count (dose: 6.25 mg/kg/injection, schedule: Q04DX002 (ip), vehicle: saline): 1 of 3
- survivor count (dose: 12.5 mg/kg/injection, schedule: Q04DX002 (ip), vehicle: saline): 0 of 3
- survivor count (dose: 25.0 mg/kg/injection, schedule: Q04DX002 (ip), vehicle: saline): 0 of 3
- survivor count (dose: 50.0 mg/kg/injection, schedule: Q04DX002 (ip), vehicle: saline): 0 of 3
- survivor count (dose: 100.0 mg/kg/injection, schedule: Q04DX002 (ip), vehicle: saline): 0 of 3
- survivor count (dose: 200.0 mg/kg/injection, schedule: Q04DX002 (ip), vehicle: saline): 0 of 3

Structure (SMILES): CCCCCCCCCCCCN1CCCN(CCCCCCCCCCCC)CC1
- survivor count [1]: 3 of 6

Structure (SMILES): CC(=O)Nc1cccc2c(C)ccnc12
- survivor count [2]: 0 of 6
- survivor count [3]: 0 of 6
- survivor count [4]: 0 of 6

Structure (SMILES): O=C(C(F)F)C(F)F
- survivor count [5]: 0 of 6
- survivor count [6]: 0 of 6

Structure (SMILES): Cc1cc[n+](CCCCCCCCCO)cc1
- survivor count (dose: 200.0 mg/kg/injection, schedule: Q01DX001 (ip), vehicle: saline): 3 of 6
- survivor count [7]: 0 of 5

Structure (SMILES): ClCCC(c1ccccc1)N1CCCCC1 (configuration not stated)
- survivor count [7]: 0 of 4

Structure (SMILES): Cc1ccc(SCCN=C(N)CSS(=O)(=O)O)cc1
- survivor count (dose: 50.0 mg/kg/injection, schedule: Q01DX009 (ip), vehicle: Klucel (hydroxypropylcellulose) (HPC)): 0 of 3
- survivor count [8]: 0 of 3
- survivor count (dose: 200.0 mg/kg/injection, schedule: Q01DX009 (ip), vehicle: Klucel (hydroxypropylcellulose) (HPC)): 0 of 3
- survivor count [9]: 0 of 3

Structure (SMILES): NNC(=O)C1C2CCCCC21 (configuration not stated)
- survivor count (dose: 150.0 mg/kg/injection, schedule: Q01DX009 (ip), vehicle: saline with Tween-80): 0 of 6
- survivor count (dose: 200.0 mg/kg/injection, schedule: Q04DX003 (ip), vehicle: saline with Tween-80): 5 of 6
- survivor count (dose: 225.0 mg/kg/injection, schedule: Q01DX009 (ip), vehicle: saline with Tween-80): 0 of 6
- survivor count (dose: 335.0 mg/kg/injection, schedule: Q01DX009 (ip), vehicle: saline with Tween-80): 0 of 6
- survivor count [1]: 0 of 6

Structure (SMILES): CCN=C(N)C(C)SS(=O)(=O)O (configuration not stated)
- survivor count (dose: 400.0 mg/kg/injection, schedule: Q04DX002 (ip), vehicle: saline): 0 of 3

Structure (SMILES): O=C(NCc1ccncc1)Nc1ccccc1F
- survivor count [8]: 1 of 3
- survivor count [10]: 2 of 6
- survivor count [9]: 0 of 3 and 6 of 6
- survivor count (dose: 400.0 mg/kg/injection, schedule: Q04DX002 (ip), vehicle: Klucel (hydroxypropylcellulose) (HPC)): 1 of 6 and 1 of 3
- survivor count [4]: 2 of 6

Structure (SMILES): O=C(O)CN(CCN(CC(=O)O)CC(=O)O)CCN(CC(=O)O)CC(=O)O
- survivor count (dose: 200.0 mg/kg/injection, schedule: Q01DX001 (ip), vehicle: carboxymethylcellulose (CMC)): 2 of 4

Structure (SMILES): CC(=O)[O][Hg][c]1cc(C)c(O)c([N+](=O)[O-])c1
- survivor count (dose: 12.5 mg/kg/injection, schedule: Q01DX009 (ip), vehicle: Klucel (hydroxypropylcellulose) (HPC)): 4 of 6
- survivor count (dose: 25.0 mg/kg/injection, schedule: Q04DX003 (ip), vehicle: Klucel (hydroxypropylcellulose) (HPC)): 2 of 6
- survivor count [11]: 0 of 6
- survivor count [2]: 0 of 6
- survivor count [3]: 0 of 6
- survivor count [4]: 0 of 6

Structure (SMILES): O=C(Nc1cc(Cl)c(Cl)cc1NC(=O)C(Cl)(Cl)Cl)C(Cl)(Cl)Cl
- survivor count (dose: 20.0 mg/kg/injection, schedule: Q01DX001 (ip), vehicle: other): 2 of 4
- survivor count (dose: 40.0 mg/kg/injection, schedule: Q01DX001 (ip), vehicle: other): 0 of 4
- survivor count (dose: 80.0 mg/kg/injection, schedule: Q01DX001 (ip), vehicle: other): 0 of 4
- survivor count (dose: 100.0 mg/kg/injection, schedule: Q01DX001 (ip), vehicle: other): 0 of 4
- survivor count (dose: 200.0 mg/kg/injection, schedule: Q01DX001 (ip), vehicle: other): 0 of 4
- survivor count (dose: 400.0 mg/kg/injection, schedule: Q01DX001 (ip), vehicle: other): 0 of 4

Structure (SMILES): CCN(CC)Cc1cc(Nc2nc(NC3CCC(N(C)C)CC3)c3ccccc3n2)ccc1OC (configuration not stated)
- survivor count (dose: 100.0 mg/kg/injection, schedule: Q04DX003 (ip), vehicle: saline): 5 of 6
- survivor count (dose: 200.0 mg/kg/injection, schedule: Q04DX003 (ip), vehicle: saline): 0 of 6
- survivor count [6]: 1 of 6

Structure (SMILES): CC1(C)COCN1CN1COCC1(C)C
- survivor count [6]: 1 of 6

Structure (SMILES): O=C(Nc1ccccc1)Nc1ccc([N+](=O)[O-])cc1[N+](=O)[O-]
- survivor count [1]: 6 of 6

Structure (SMILES): O=C(CCCN1CCC(n2c(=O)[nH]c3ccccc32)CC1)c1ccc(F)cc1
- survivor count [11]: 4 of 4
- survivor count [8]: 5 of 6
- survivor count [5]: 1 of 6
- survivor count [3]: 2 of 4
- survivor count [4]: 0 of 4

Structure (SMILES): COc1ccc([N+](=O)[O-])cc1CNCCCl
- survivor count [12]: 0 of 6

Structure (SMILES): CCc1ccc(NC(=S)Nc2ccccc2)cc1
- survivor count (dose: 400.0 mg/kg/injection, schedule: Q04DX002 (ip), vehicle: other): 1 of 3

Structure (SMILES): CC1(C)N=C(N)N=C(N)N1c1cccc(OCCOc2cccc(N)c2)c1
- survivor count (dose: 80.0 mg/kg/injection, schedule: Q01DX001 (ip), vehicle: saline): 0 of 6
- survivor count [12]: 0 of 3
- survivor count [10]: 0 of 3

Structure (SMILES): CC(=O)OC1CCC(C(C)(C)C)CC1 (configuration not stated)
- survivor count (dose: 400.0 mg/kg/injection, schedule: Q01DX009 (ip), vehicle: saline with Tween-80): 0 of 6
